Consider 29 molecules from patent US20250075147A1, “FRAGRANCE AND FLAVOR COMPOSITIONS COMPRISING NEW FLAVOR AND FRAGRANCE INGREDIENTS” (priority 2023, published 2025).

The nature of data set [1]: Evaluation by trained and/or certified flavor or fragrance chemists or master perfumers; categorization by commercial prospect. The settings on record: for Rating: category of commercial prospect, (A) highest > (B) > (C) > (D) lowest, (E) requires further study; for Rating (category of commercial prospect): evaluation by trained flavor or fragrance chemists or master perfumers.

The test system of data set [2] is odor evaluation panel. The data set is described as follows: Odor evaluation panel rating of odorants by Rate-All-That-Apply (RATA) method with 55-word odor lexicon, plus intensity and pleasantness. Details: species or system human. To be noted: for Floral: mean panelist score for odor label floral (RATA); for Fruity: mean panelist score for odor label fruity (RATA); for Spicy: mean panelist score for odor label spicy (RATA); for Sweet: mean panelist score for odor label sweet (RATA); for Pleasantness: mean panelist score for odor pleasantness.

For `COc1ccc(CCCCO)cc1` [Compound 306, 4-(4-methoxyphenyl)butan-1-ol], in data set [1], the Rating result was “(D)”. In data set [2], the Floral was 0.306, the Fruity is reported as 0.167, the Spicy turned out to be 0.278 and the Sweet was 0.611.
For `C=Cc1ccc(OC(C)=O)cc1` [Compound 900, (4-ethenylphenyl) acetate], in data set [1], the “Rating (category of commercial prospect)” value was “(B)”. Further, in data set [2], the Floral is listed as 0.156, the Fruity is listed as 0.125, the Spicy is given as 0.781 and the Sweet is reported as 1.062. The Pleasantness in data set [2] was determined as 4.419.
Take `Cn1cc(C=O)c2ccccc21` [Compound 152, 1-methylindole-3-carbaldehyde]: the Rating result in data set [1] is reported as “(D)”. Moreover, in data set [2], the Floral amounted to 0.235, the Fruity is 0, the Spicy is 0.235 and the Sweet was 0.441. In addition, the Pleasantness in data set [2] stood at 4.938.
As for `CN(CCO)c1ccccn1` [Compound 517, 2-[methyl(pyridin-2-yl)amino]ethanol], the Rating entry in data set [1] was “(D)”. In addition, in data set [2], the Floral is reported as 0.387, the Fruity came out at 0.161, the Spicy worked out at 0.032 and the Sweet is given as 0.645. In data set [2], the Pleasantness amounted to 5.577.
Regarding `CCN1CCC(O)C1` (stereo not drawn) [Compound 765, 1-ethylpyrrolidin-3-ol], the “Rating (category of commercial prospect)” value in data set [1] was “(D)”. For the same molecule, in data set [2], the Floral is 0.25, the Fruity was found to be 0.219, the Spicy stood at 0.125 and the Sweet was 0.531. For the same molecule, the Pleasantness in data set [2] is 4.25.
As to `Cc1csc(=S)[nH]1` [Compound 717, 4-methyl-3H-1,3-thiazole-2-thione], in data set [1], the “Rating (category of commercial prospect)” value is “(D)”. Further, in data set [2], the Floral turned out to be 0, the Fruity stood at 0, the Spicy came to 0.636 and the Sweet came to 0.364. Further, in data set [2], the Pleasantness turned out to be 5.785.
As to `CN1C2CCCC1CC(=NO)C2` [Compound 297, N-(9-methyl-9-azabicyclo[3.3.1]nonan-3-ylidene)hydroxylamine], the Rating result in data set [1] is reported as “(D)”. Also, in data set [2], the Floral came out at 0.188, the Fruity is on record as 0.344, the Spicy is recorded as 0.094 and the Sweet was 0.281. Further, the Pleasantness in data set [2] is 5.025.
As for `CC1(C(=O)O)CCCCC1` [Compound 200, 1-methylcyclohexane-1-carboxylic acid], the Rating result in data set [1] was “(D)”. In data set [2], the Floral is listed as 0.273, the Fruity is 0.515, the Spicy came out at 0.455 and the Sweet is recorded as 1.242. The Pleasantness in data set [2] is recorded as 4.77.
In the case of `N#Cc1ccsc1` [Compound 961, thiophene-3-carbonitrile], the “Rating (category of commercial prospect)” value in data set [1] was “(D)”. In addition, in data set [2], the Floral turned out to be 0.406, the Fruity amounted to 1.438, the Spicy is listed as 1.469 and the Sweet turned out to be 2.281. Besides, in data set [2], the Pleasantness came out at 6.547.
Take `CCOC(=O)C(CC(C)C)C(=O)OCC` [Compound 471, diethyl 2-(2-methylpropyl)propanedioate]: the Rating result in data set [1] is on record as “(D)”. In addition, in data set [2], the Floral is 0.444, the Fruity came to 2.306, the Spicy is listed as 0.111 and the Sweet worked out at 1.722.
Turning to `COc1ccnc(OC)n1` [Compound 259, 2,4-dimethoxypyrimidine], the Rating entry in data set [1] is “(A)”. Further, in data set [2], the Floral stood at 0, the Fruity came out at 0.088, the Spicy is listed as 0 and the Sweet amounted to 0.529. Also, the Pleasantness in data set [2] is 5.671.
On to `C=C(C)C(=O)OCCC(C)OC(=O)C(=C)C` (stereo not drawn) [Compound 18, 3-(2-methylprop-2-enoyloxy)butyl 2-methylprop-2-enoate], for which the Rating entry in data set [1] was “(A)”. Further, in data set [2], the Floral is given as 0.083, the Fruity amounted to 0.25, the Spicy is on record as 0.167 and the Sweet is on record as 0.111.
Consider `CCOC(=O)[C@H](O)c1ccccc1` [Compound 832, ethyl (2R)-2-hydroxy-2-phenylacetate], for which, in data set [1], the “Rating (category of commercial prospect)” value is on record as “(D)”. Moreover, in data set [2], the Floral was determined as 0.219, the Fruity is reported as 0.5, the Spicy is recorded as 0 and the Sweet was found to be 0.312. In data set [2], the Pleasantness is 5.166.
On to `Cc1c[nH]c(C)c1` [Compound 139, 2,4-dimethyl-1H-pyrrole], for which the Rating entry in data set [1] was “(D)”. In data set [2], the Floral was found to be 0.188, the Fruity is reported as 0.375, the Spicy is reported as 0.062 and the Sweet worked out at 0.656. Also, the Pleasantness in data set [2] came to 5.434.
As to `Cc1cccc(C(=O)O)c1` [Compound 999, 3-methylbenzoic acid], in data set [1], the “Rating (category of commercial prospect)” value is on record as “(D)”. For the same molecule, in data set [2], the Floral was 0.083, the Fruity was 0, the Spicy came out at 0.028 and the Sweet is listed as 0.056.
As for `CC(C)N(C=O)C(C)C` [Compound 701, N,N-di(propan-2-yl)formamide], in data set [1], the “Rating (category of commercial prospect)” value is given as “(A)”. In addition, in data set [2], the Floral turned out to be 0.2, the Fruity was determined as 0.933, the Spicy is given as 0 and the Sweet worked out at 1.033. Besides, in data set [2], the Pleasantness was 5.737.
As for `N#C/C=C/C1CCCC1` [Compound 680, (E)-3-cyclopentylprop-2-enenitrile], the “Rating (category of commercial prospect)” value in data set [1] was “(B)”. Also, in data set [2], the Floral worked out at 0.028, the Fruity was 0.278, the Spicy worked out at 0.417 and the Sweet amounted to 0.833.
For the molecule `C1=C(c2ccccc2)CCCC1` [Compound 611, cyclohexen-1-ylbenzene], the “Rating (category of commercial prospect)” value in data set [1] was “(D)”. Further, in data set [2], the Floral was 1.156, the Fruity amounted to 0.188, the Spicy amounted to 0.406 and the Sweet was determined as 0.656. Moreover, the Pleasantness in data set [2] is reported as 5.197.
With `C/C=C1\C[C@@H]2C=C[C@H]1C2` [Compound 125, (1R,4R,5E)-5-ethylidenebicyclo[2.2.1]hept-2-ene], the Rating result in data set [1] is reported as “(C)”. In data set [2], the Floral is recorded as 0.139, the Fruity turned out to be 0.556, the Spicy is recorded as 0.194 and the Sweet was determined as 0.333.
`C1=Cc2ccccc2C1` [Compound 321, 1H-indene]: in data set [1], the Rating result is on record as “(D)”. For the same molecule, in data set [2], the Floral came out at 0.306, the Fruity amounted to 0, the Spicy is given as 0 and the Sweet is 0.222.
`C=C(c1ccccc1)c1ccccc1` [Compound 820, 1-phenylethenylbenzene]: in data set [1], the “Rating (category of commercial prospect)” value is “(D)”. Besides, in data set [2], the Floral came to 0.125, the Fruity amounted to 0.188, the Spicy came to 0.469 and the Sweet worked out at 0.219. In addition, the Pleasantness in data set [2] is listed as 5.028.
As for `N#Cc1ccccn1` [Compound 177, pyridine-2-carbonitrile], the Rating entry in data set [1] is “(B)”. For the same molecule, in data set [2], the Floral turned out to be 0.161, the Fruity was 0.806, the Spicy is 0.871 and the Sweet is on record as 1.161. Moreover, in data set [2], the Pleasantness is recorded as 5.694.
For `CC1(C)CCCC(=O)C1` [Compound 153, 3,3-dimethylcyclohexan-1-one], the Rating entry in data set [1] is given as “(C)”. In data set [2], the Floral worked out at 0.333, the Fruity turned out to be 0.583, the Spicy amounted to 0 and the Sweet is reported as 0.611.
In the case of `CC1=Cc2ccccc2C1` [Compound 764, 2-methyl-1H-indene], the “Rating (category of commercial prospect)” value in data set [1] is “(D)”. In addition, in data set [2], the Floral is recorded as 0.361, the Fruity came to 0, the Spicy is on record as 0.083 and the Sweet is given as 0.417.
Regarding `c1ccc(CCc2ccccc2)cc1` [Compound 190, 2-phenylethylbenzene], in data set [1], the Rating result was “(D)”. For the same molecule, in data set [2], the Floral turned out to be 0.562, the Fruity is 0.312, the Spicy is recorded as 0.156 and the Sweet is reported as 1. Also, the Pleasantness in data set [2] stood at 5.556.
Turning to `CCc1ncc(C)[nH]1` [Compound 85, 2-ethyl-5-methyl-1H-imidazole], the Rating entry in data set [1] was “(C)”. In addition, in data set [2], the Floral was found to be 0, the Fruity is listed as 0, the Spicy was determined as 0.111 and the Sweet is listed as 0.306.
For the molecule `CC(C)(C)OC(=O)NC1CCCNC1` (stereo not drawn) [Compound 760, tert-butyl N-piperidin-3-ylcarbamate], in data set [1], the “Rating (category of commercial prospect)” value was “(B)”. Besides, in data set [2], the Floral was found to be 0, the Fruity worked out at 0, the Spicy amounted to 0 and the Sweet was determined as 0.
In the case of `CC#CC(=O)O` [Compound 201, but-2-ynoic acid], the Rating result in data set [1] was “(D)”. In addition, in data set [2], the Floral came out at 0, the Fruity came to 0.25, the Spicy worked out at 0.139 and the Sweet is 0.333.
For the molecule `Cc1cn[nH]c1C` [Compound 216, 4,5-dimethyl-1H-pyrazole], the Rating result in data set [1] is “(A)”. Also, in data set [2], the Floral is on record as 0, the Fruity was 0.094, the Spicy is listed as 0.469 and the Sweet stood at 0.875. Further, in data set [2], the Pleasantness turned out to be 5.556.
